Patent US6716597B2, “Methods and products for regulating cell motility” (priority 2000, dated 2004)

Test system: Ena/VASP proteins (Mena, VASP) in Rat2 cells
Experiment: Immunofluorescence localization of endogenous Ena/VASP proteins
Assay type: cell-based, rat
Conditions: Rat2 cells incubated with 150 nM cytochalasin D

SMILES: C=C1[C@@H](C)[C@H]2[C@H](Cc3ccccc3)NC(=O)[C@]23[C@H](OC(C)=O)/C=C/[C@@](C)(O)C(=O)[C@@H](C)C/C=C/[C@H]3[C@@H]1O [cytochalasin D, reference compound]
- Ena/VASP localization: shifted away from the leading edge
